Assay: in vitro
Conditions: human, Relative Viability (%)

| Structure (SMILES) | viability at 20 µM [%] |
| --- | --- |
| CN1[C@@H]2CC[C@H]1C[C@@H](OC(=O)C(CO)c1ccccc1)C2 (some centres unmarked) [Atropine] | 164 |
| CCN(CC)CC(=O)Nc1c(C)cccc1C [Lidocaine] | 94.2 |
